For three substances, binding results are on record in publication PMC8949324.

Sequences of proteins named here, by UniProt entry; tags and fusion partners are left off.
UniProt P16794: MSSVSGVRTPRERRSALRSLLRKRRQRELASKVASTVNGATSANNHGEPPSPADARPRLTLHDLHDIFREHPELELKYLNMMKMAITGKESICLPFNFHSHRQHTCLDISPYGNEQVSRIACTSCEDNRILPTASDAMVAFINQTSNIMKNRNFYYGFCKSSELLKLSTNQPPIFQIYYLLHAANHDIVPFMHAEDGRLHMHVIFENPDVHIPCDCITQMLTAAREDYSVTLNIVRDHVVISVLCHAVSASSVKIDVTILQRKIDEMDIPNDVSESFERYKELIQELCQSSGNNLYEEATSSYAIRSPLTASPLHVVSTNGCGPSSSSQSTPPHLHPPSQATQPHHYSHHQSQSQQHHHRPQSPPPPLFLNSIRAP
UniProt P12004: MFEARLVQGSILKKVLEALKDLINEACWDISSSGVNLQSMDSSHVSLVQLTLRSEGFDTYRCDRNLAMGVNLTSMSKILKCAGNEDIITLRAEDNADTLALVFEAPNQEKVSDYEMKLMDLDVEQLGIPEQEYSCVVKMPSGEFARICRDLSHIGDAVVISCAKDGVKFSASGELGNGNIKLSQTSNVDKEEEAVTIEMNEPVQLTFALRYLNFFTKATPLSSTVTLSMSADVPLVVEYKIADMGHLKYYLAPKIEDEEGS
UniProt P16791: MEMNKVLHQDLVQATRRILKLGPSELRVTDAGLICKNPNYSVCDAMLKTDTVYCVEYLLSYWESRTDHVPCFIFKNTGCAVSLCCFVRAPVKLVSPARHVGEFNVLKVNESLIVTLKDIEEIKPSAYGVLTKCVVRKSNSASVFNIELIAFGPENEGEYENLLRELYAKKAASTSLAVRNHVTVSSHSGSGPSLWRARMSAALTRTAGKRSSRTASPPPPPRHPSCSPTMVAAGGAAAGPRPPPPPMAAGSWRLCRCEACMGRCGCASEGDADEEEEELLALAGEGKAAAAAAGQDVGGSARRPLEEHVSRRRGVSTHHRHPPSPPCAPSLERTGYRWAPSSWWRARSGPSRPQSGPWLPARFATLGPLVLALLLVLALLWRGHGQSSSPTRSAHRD

Results are given in words; binding and its absence hold for the method and conditions named. Binding seen in cells or lysates may run through a third protein. Some results given as binding are weak or reduced against the parent protein; the word gives no strength.

The target of test [1] is FLAG-tagged UL53 expressed from 53-F HCMV (AD169-RV encoding a FLAG-tagged version of UL53) (human cytomegalovirus (HCMV), strain AD169) (UniProt P16794). Briefly: co-IP.
Test [2] has as its target UL53-FLAG (pcDNA vector encoding a FLAG-tagged version of UL53) (human cytomegalovirus (HCMV)) (UniProt P16794). Briefly: co-IP.

Regarding PCNA (from UniProt P12004 1-261), the binding result in test [1] is given as “no binding”.

As for UL50 (from UniProt P16791 1-397), in test [1], the binding entry is reported as “binds”.

For “UL50-HA (pcDNA-based plasmid encoding an HA-tagged version of UL50) (from UniProt P16791 1-397)”, in test [2], the binding result is “binds”.
